Assay results from patent US7803821B2, “Fungicide N-cycloalkyl-carboxamide, thiocarboxamide and N-substituted-carboximidamide derivatives” (Bayer Cropscience SA, priority 2006, dated 2010).
Some of these results come from one statement about several compounds together. At least one compound was matched to its structure with a doubt left.

Experiments:
Sphaerotheca fuliginea = test: In vivo test on Sphaerotheca fuliginea (powdery mildew) on gherkin plants; details: 500 ppm, gherkin plants sprayed 24 hours before contamination, grading 21 days after contamination
Pyrenophora teres = test: In vivo test on Pyrenophora teres (barley net blotch) on barley plants; details: 500 ppm, barley plants sprayed 24 hours before contamination, grading 12 days after contamination
[1] = test system: Mycosphaerella graminicola; test: In vivo test on Mycosphaerella graminicola (wheat leaf spot) on wheat plants; details: 500 ppm, wheat plants sprayed 24 hours before contamination, grading 21 to 28 days after contamination

## CCc1nn(C)c(F)c1C(=O)N(C1CC1)C(C)c1ncc(Cl)cc1Cl (centres unmarked) [Example 33]
Sphaerotheca fuliginea
  protection (% of efficacy): good (at least 70%) or total: at least 70%
Pyrenophora teres
  protection: good (at least 70%) or total: at least 70%

## Cc1nc(C(F)F)c(C(=O)N(Cc2ccc(Cl)cn2)C2CC2)s1 [Example 52]
[1]
  protection (% of efficacy): good (at least 70%) or total: at least 70%

## CCC(c1ccncc1)N(C(=O)c1c(C)nn(C)c1F)C1CC1 (centres unmarked) [Example 17, N-cyclopropyl-N-[1-pyridin-4-yl-propyl]-5-fluoro-1,3-dimethyl-1H-pyrazole-4-carboxamide]
Pyrenophora teres
  protection: good (at least 70%) or total: at least 70%
[1]
  protection (% of efficacy): good (at least 70%) or total: at least 70%

## Cc1nc(C(F)(F)F)ccc1CN(C(=O)c1cn(C)nc1C(F)F)C1CC1 [Example 87]
[1]
  protection (% of efficacy): good (at least 70%) or total: at least 70%

## CC(c1ncc(Cl)cc1Cl)N(C(=S)c1cn(C)nc1C(F)F)C1CC1 (centres unmarked) [Example 32]
Sphaerotheca fuliginea
  protection (% of efficacy): good (at least 70%) or total: at least 70%
Pyrenophora teres
  protection: good (at least 70%) or total: at least 70%

## O=C(c1sccc1I)N(Cc1ncc(Cl)cc1Cl)C1CC1 [Example 26]
[1]
  protection (% of efficacy): good (at least 70%) or total: at least 70%

## COc1ccc(CN(C(=O)c2cn(C)nc2C(F)F)C2CC2)cn1 [Example 61]
[1]
  protection (% of efficacy): good (at least 70%) or total: at least 70%

## Cc1nn(C)cc1C(=O)N(Cc1c(Cl)cncc1Cl)C1CC1 [Example 100]
Sphaerotheca fuliginea
  protection (% of efficacy): good (at least 70%) or total: at least 70%

## Cn1cc(C(=O)N(Cc2c(Cl)cncc2Cl)C2CC2)c(C(F)F)n1 [Example 103]
Sphaerotheca fuliginea
  protection (% of efficacy): good (at least 70%) or total: at least 70%
Pyrenophora teres
  protection: good (at least 70%) or total: at least 70%

## Cc1nc(C(F)(F)F)c(C(=O)N(Cc2ccc(Cl)cn2)C2CC2)s1 [Example 51]
Sphaerotheca fuliginea
  protection (% of efficacy): good (at least 70%) or total: at least 70%
[1]
  protection (% of efficacy): good (at least 70%) or total: at least 70%

## Cn1cc(C(=O)N(Cc2ccc(Cl)cn2)C2CC2)c(C(F)(F)F)n1 [Example 48]
[1]
  protection (% of efficacy): good (at least 70%) or total: at least 70%

## COc1ccnc(CN(C(=O)c2cn(C)nc2C(F)F)C2CC2)c1OC [Example 114]
Sphaerotheca fuliginea
  protection (% of efficacy): good (at least 70%) or total: at least 70%

## CC(c1cnc(Cl)c(Cl)c1)N(C(=O)c1cn(C)nc1C(F)(F)F)C1CC1 (centres unmarked) [Example 1]
[1]
  protection (% of efficacy): good (at least 70%) or total: at least 70%

## Cn1cc(C(=O)N(Cc2ccc(Oc3ccccc3)nc2)C2CC2)c(C(F)F)n1 [Example 36]
[1]
  protection (% of efficacy): good (at least 70%) or total: at least 70%

## CC(c1ncc(Cl)cc1Cl)N(C(=O)c1cn(C)nc1C(F)F)C1CC1 (centres unmarked) [Example 31]
Sphaerotheca fuliginea
  protection (% of efficacy): good (at least 70%) or total: at least 70%
Pyrenophora teres
  protection: good (at least 70%) or total: at least 70%
[1]
  protection (% of efficacy): good (at least 70%) or total: at least 70%

## Cc1nn(C)c(F)c1C(=O)N(Cc1ccc(Oc2ccccc2)nc1)C1CC1 [Example 35]
[1]
  protection (% of efficacy): good (at least 70%) or total: at least 70%

## Cc1nn(C)c(F)c1C(=O)N(Cc1ncc(Cl)cc1Cl)C1CC1 [Example 29]
Sphaerotheca fuliginea
  protection (% of efficacy): good (at least 70%) or total: at least 70%
[1]
  protection (% of efficacy): good (at least 70%) or total: at least 70%

## Cn1cc(C(=O)N(Cc2cnc(Cl)cc2Cl)C2CC2)c(C(F)F)n1 [Example 10]
Sphaerotheca fuliginea
  protection (% of efficacy): good (at least 70%) or total: at least 70%
Pyrenophora teres
  protection: good (at least 70%) or total: at least 70%
[1]
  protection (% of efficacy): good (at least 70%) or total: at least 70%

## Cc1nn(C)c(F)c1C(=O)N(C1CC1)C(C)c1cnc(Cl)c(Cl)c1 (centres unmarked) [Example 4]
Sphaerotheca fuliginea
  protection (% of efficacy): good (at least 70%) or total: at least 70%
Pyrenophora teres
  protection: good (at least 70%) or total: at least 70%
[1]
  protection (% of efficacy): good (at least 70%) or total: at least 70%

## Cn1cc(C(=O)N(Cc2ncc(Cl)cc2Cl)C2CC2)c(C(F)(F)F)n1 [Example 21]
Sphaerotheca fuliginea
  protection (% of efficacy): good (at least 70%) or total: at least 70%
Pyrenophora teres
  protection: good (at least 70%) or total: at least 70%
[1]
  protection (% of efficacy): good (at least 70%) or total: at least 70%

## CC(c1cnc(Cl)c(Cl)c1)N(C(=O)c1cn(C)nc1C(F)F)C1CC1 (centres unmarked) [Example 5]
Sphaerotheca fuliginea
  protection (% of efficacy): good (at least 70%) or total: at least 70%
Pyrenophora teres
  protection: good (at least 70%) or total: at least 70%
[1]
  protection (% of efficacy): good (at least 70%) or total: at least 70%

## Cc1nn(C)c(F)c1C(=O)N(C1CC1)C(C)c1ncc(Cl)cc1Cl (centres unmarked) [Example 28]
Pyrenophora teres
  protection: good (at least 70%) or total: at least 70%
[1]
  protection (% of efficacy): good (at least 70%) or total: at least 70%

## CC(c1cnccn1)N(C(=O)c1cn(C)nc1C(F)F)C1CC1 (centres unmarked) [Example 42]
[1]
  protection (% of efficacy): good (at least 70%) or total: at least 70%

## Cc1nn(C)c(F)c1C(=O)N(Cc1cnc(Cl)cc1Cl)C1CC1 [Example 9]
Sphaerotheca fuliginea
  protection (% of efficacy): good (at least 70%) or total: at least 70%
Pyrenophora teres
  protection: good (at least 70%) or total: at least 70%
[1]
  protection (% of efficacy): good (at least 70%) or total: at least 70%

## COc1nn(C)cc1C(=O)N(Cc1ncc(Cl)cc1Cl)C1CC1 [Example 34]
Sphaerotheca fuliginea
  protection (% of efficacy): good (at least 70%) or total: at least 70%
[1]
  protection (% of efficacy): good (at least 70%) or total: at least 70%

## Cc1nn(C)c(F)c1C(=O)N(Cc1c(Cl)cncc1Cl)C1CC1 [Example 102]
Sphaerotheca fuliginea
  protection (% of efficacy): good (at least 70%) or total: at least 70%
[1]
  protection (% of efficacy): good (at least 70%) or total: at least 70%

## Cn1cc(C(=O)N(Cc2ccc(Cl)cn2)C2CC2)c(C(F)F)n1 [Example 54]
[1]
  protection (% of efficacy): good (at least 70%) or total: at least 70%

## Cc1nc(C(F)F)c(C(=O)N(Cc2ncc(Cl)cc2Cl)C2CC2)s1 [Example 24]
Sphaerotheca fuliginea
  protection (% of efficacy): good (at least 70%) or total: at least 70%
Pyrenophora teres
  protection: good (at least 70%) or total: at least 70%
[1]
  protection (% of efficacy): good (at least 70%) or total: at least 70%

## Cc1nn(C)cc1C(=O)N(C1CC1)C(C)c1ncc(Cl)cc1Cl (centres unmarked) [Example 27]
Sphaerotheca fuliginea
  protection (% of efficacy): good (at least 70%) or total: at least 70%
Pyrenophora teres
  protection: good (at least 70%) or total: at least 70%

## Cc1nc(C(F)F)c(C(=O)N(C2CC2)C(C)c2ncc(Cl)cc2Cl)s1 (centres unmarked) [Example 20]
Sphaerotheca fuliginea
  protection (% of efficacy): good (at least 70%) or total: at least 70%
Pyrenophora teres
  protection: good (at least 70%) or total: at least 70%
[1]
  protection (% of efficacy): good (at least 70%) or total: at least 70%
